From patent US20250283871A1, “COMPOSITIONS AND METHODS FOR MODULATING THE INTERACTION BETWEEN SS18-SSX FUSION ONCOPROTEIN AND NUCLEOSOMES” (Dana-Farber Cancer Institute, Inc., priority 2020, published 2025)

System: BAF complex subunits and histone proteins
Experiment: Mass spectrometry proteomics of purified HA-SS18 WT and HA-SS18-SSX1 complexes (Tables 5A-5E)
Parameters: species or system human
Details: for Total / Unique: HA-SS18SSX1_CHR_peptides; for Total: total peptides of the identified protein; for Unique: unique peptides of the identified protein
[1] = HA-SS18SSX1_CHR_peptides: proteins found in HA-SS18-SSX1 BAF complex purification from solubilized chromatin (CHR), HEK-293T
[2] = HA-SS18WT_NE_peptides: HA-SS18 WT complexes purified from nuclear extract (NE), HEK-293T, label = protein identified (Gene Symbol)
[3] = HA-SS18SSX1 purification, NE (soluble nuclear extract) fraction, HEK-293T, peptides per identified protein
[4] = HA-SS18WT_CHR_peptides: protein identified in HA-SS18 WT BAF complex purification from nuclease-treated solubilized chromatin (CHR), HEK-293T
[5] = HA-SS18SSX1_NE_peptides: protein co-purified with HA-SS18-SSX1 BAF complexes from soluble nuclear extract (NE), HEK-293T cells
[6] = HA-SS18WT_NE_peptides: proteins co-purified with HA-SS18 WT from nuclear extract (NE), HEK-293T

Molecule | Total (peptides) [1] | Unique (peptides) [1] | Total | Unique | Total (peptides) [2] | Unique (peptides) [2] | Total (total peptides) [3] | Unique (unique peptides) [3] | Total (total peptides) [4] | Unique (unique peptides) [4] | Total (peptides) [5] | Unique (peptides) [5] | Total (peptides) [6] | Unique (peptides) [6]
CHAMP1 (protein, UniProt Q96JM3 1-812, looked up) Chromosome …: MEAFQELRKPSARLECDHCSFRGTDYENVQIHMGTIHPEFCDEMDAGGLGKMIFYQKSAKLFHCHKCFFTSKMYSNVYYHITSKHASPDKWNDKPKNQLNKETDPVKSPPLPEHQKIPCNSAEPKSIPALSMETQKLGSVLSPESPKPTPLTPLEPQKPGSVVSPELQTPLPSPEPSKPASVSSPEPPKSVPVCESQKLAPVPSPEPQKPAPVSPESVKATLSNPKPQKQSHFPETLGPPSASSPESPVLAASPEPWGPSPAASPESRKSARTTSPEPRKPSPSESPEPWKPFPAVSPEPRRPAPAVSPGSWKPGPPGSPRPWKSNPSASSGPWKPAKPAPSVSPGPWKPIPSVSPGPWKPTPSVSSASWKSSSVSPSSWKSPPASPESWKSGPPELRKTAPTLSPEHWKAVPPVSPELRKPGPPLSPEIRSPAGSPELRKPSGSPDLWKLSPDQRKTSPASLDFPESQKSSRGGSPDLWKSSFFIEPQKPVFPETRKPGPSGPSESPKAASDIWKPVLSIDTEPRKPALFPEPAKTAPPASPEARKRALFPEPRKHALFPELPKSALFSESQKAVELGDELQIDAIDDQKCDILVQEELLASPKKLLEDTLFPSSKKLKKDNQESSDAELSSSEYIKTDLDAMDIKGQESSSDQEQVDVESIDFSKENKMDMTSPEQSRNVLQFTEEKEAFISEEEIAKYMKRGKGKYYCKICCCRAMKKGAVLHHLVNKHNVHSPYKCTICGKAFLLESLLKNHVAAHGQSLLKCPRCNFESNFPRGFKKHLTHCQSRHNEEANKKLMEALEPPLEEQQI | 1 | 1 | – | – | – | – | – | – | – | – | – | – | – | –
MYO1D (protein, UniProt O94832 2-1006, looked up) Unconventional myosin-Id: AEQESLEFGKADFVLMDTVSMPEFMANLRLRFEKGRIYTFIGEVVVSVNPYKLLNIYGRDTIEQYKGRELYERPPHLFAIADAAYKAMKRRSKDTCIVISGESGAGKTEASKYIMQYIAAITNPSQRAEVERVKNMLLKSNCVLEAFGNAKTNRNDNSSRFGKYMDINFDFKGDPIGGHINNYLLEKSRVIVQQPGERSFHSFYQLLQGGSEQMLRSLHLQKSLSSYNYIHVGAQLKSSINDAAEFRVVADAMKVIGFKPEEIQTVYKILAAILHLGNLKFVVDGDTPLIENGKVVSIIAELLSTKTDMVEKALLYRTVATGRDIIDKQHTEQEASYGRDAFAKAIYERLFCWIVTRINDIIEVKNYDTTIHGKNTVIGVLDIYGFEIFDNNSFEQFCINYCNEKLQQLFIQLVLKQEQEEYQREGIPWKHIDYFNNQIIVDLVEQQHKGIIAILDDACMNVGKVTDEMFLEALNSKLGKHAHFSSRKLCASDKILEFDRDFRIRHYAGDVVYSVIGFIDKNKDTLFQDFKRLMYNSSNPVLKNMWPEGKLSITEVTKRPLTAATLFKNSMIALVDNLASKEPYYVRCIKPNDKKSPQIFDDERCRHQVEYLGLLENVRVRRAGFAFRQTYEKFLHRYKMISEFTWPNHDLPSDKEAVKKLIERCGFQDDVAYGKTKIFIRTPRTLFTLEELRAQMLIRIVLFLQKVWRGTLARMRYKRTKAALTIIRYYRRYKVKSYIHEVARRFHGVKTMRDYGKHVKWPSPPKVLRRFEEALQTIFNRWRASQLIKSIPASDLPQVRAKVAAVEMLKGQRADLGLQRAWEGNYLASKPDTPQTSGTFVPVANELKRKDKYMNVLFSCHVRKVNRFSKVEDRAIFVTDRHLYKMDPTKQYKVMKTIPLYNLTGLSVSNGKDQLVVFHTKDNKDLIVCLFSKQPTHESRIGELVGVLVNHFKSEKRHLQVNVTNPVQCSLHGKKCTVSVETRLNQPQPDFTKNRSGFILSVPGN | – | – | 1 | 1 | 10 | 10 | – | – | – | – | – | – | – | –
METTL17 (protein, UniProt Q9H7H0 20-456, looked up) Ribosome assembly protein …: VAPQARALAALVPGVTQVDNKSGFLQKRPHRQHPGILKLPHVRLPQALANGAQLLLLGSAGPTMENQVQTLTSYLWSRHLPVEPEELQRRARHLEKKFLENPDLSQTEEKLRGAVLHALRKTTYHWQELSYTEGLSLVYMAARLDGGFAAVSRAFHEIRARNPAFQPQTLMDFGSGTGSVTWAAHSIWGQSLREYMCVDRSAAMLVLAEKLLKGGSESGEPYIPGVFFRQFLPVSPKVQFDVVVSAFSLSELPSKADRTEVVQTLWRKTGHFLVLVENGTKAGHSLLMDARDLVLKGKEKSPLDPRPGFVFAPCPHELPCPQLTNLACSFSQAYHPIPFSWNKKPKEEKFSMVILARGSPEEAHRWPRITQPVLKRPRHVHCHLCCPDGHMQHAVLTARRHGRDLYRCARVSSWGDLLPVLTPSAFPPSTAQDPSES | 1 | 1 | – | – | 5 | 4 | 4 | 3 | 2 | 2 | – | – | – | –
DPM1 (protein, UniProt O60762 2-260, looked up) Dolichol-phosphate …: ASLEVSRSPRRSRRELEVRSPRQNKYSVLLPTYNERENLPLIVWLLVKSFSESGINYEIIIIDDGSPDGTRDVAEQLEKIYGSDRILLRPREKKLGLGTAYIHGMKHATGNYIIIMDADLSHHPKFIPEFIRKQKEGNFDIVSGTRYKGNGGVYGWDLKRKIISRGANFLTQILLRPGASDLTGSFRLYRKEVLEKLIEKCVSKGYVFQMEMIVRARQLNYTIGEVPISFVDRVYGESKLGGNEIVSFLKGLLTLFATT | – | – | 1 | 1 | 4 | 4 | 4 | 4 | – | – | – | – | – | –
DAZAP1 (protein, UniProt Q96EP5 1-407, looked up) DAZ-associated protein 1: MNNSGADEIGKLFVGGLDWSTTQETLRSYFSQYGEVVDCVIMKDKTTNQSRGFGFVKFKDPNCVGTVLASRPHTLDGRNIDPKPCTPRGMQPERTRPKEGWQKGPRSDNSKSNKIFVGGIPHNCGETELREYFKKFGVVTEVVMIYDAEKQRPRGFGFITFEDEQSVDQAVNMHFHDIMGKKVEVKRAEPRDSKSQAPGQPGASQWGSRVVPNAANGWAGQPPPTWQQGYGPQGMWVPAGQAIGGYGPPPAGRGAPPPPPPFTSYIVSTPPGGFPPPQGFPQGYGAPPQFSFGYGPPPPPPDQFAPPGVPPPPATPGAAPLAFPPPPSQAAPDMSKPPTAQPDFPYGQYAGYGQDLSGFGQGFSDPSQQPPSYGGPSVPGSGGPPAGGSGFGRGQNHNVQGFHPYRR | – | – | 1 | 1 | 4 | 4 | 4 | 3 | 1 | 1 | – | – | – | –
NHP2 (protein, UniProt Q9NX24 1-153, looked up) H/ACA ribonucleoprotein …: MTKIKADPDGPEAQAEACSGERTYQELLVNQNPIAQPLASRRLTRKLYKCIKKAVKQKQIRRGVKEVQKFVNKGEKGIMVLAGDTLPIEVYCHLPVMCEDRNLPYVYIPSKTDLGAAAGSKRPTCVIMVKPHEEYQEAYDECLEEVQSLPLPL | 1 | 1 | – | – | – | – | – | – | – | – | – | – | – | –
NXF1 (protein, UniProt Q9UBU9 2-619, looked up) Nuclear RNA export factor 1: ADEGKSYSEHDDERVNFPQRKKKGRGPFRWKYGEGNRRSGRGGSGIRSSRLEEDDGDVAMSDAQDGPRVRYNPYTTRPNRRGDTWHDRDRIHVTVRRDRAPPERGGAGTSQDGTSKNWFKITIPYGRKYDKAWLLSMIQSKCSVPFTPIEFHYENTRAQFFVEDASTASALKAVNYKILDRENRRISIIINSSAPPHTILNELKPEQVEQLKLIMSKRYDGSQQALDLKGLRSDPDLVAQNIDVVLNRRSCMAATLRIIEENIPELLSLNLSNNRLYRLDDMSSIVQKAPNLKILNLSGNELKSERELDKIKGLKLEELWLDGNSLCDTFRDQSTYISAIRERFPKLLRLDGHELPPPIAFDVEAPTTLPPCKGSYFGTENLKSLVLHFLQQYYAIYDSGDRQGLLDAYHDGACCSLSIPFIPQNPARSSLAEYFKDSRNVKKLKDPTLRFRLLKHTRLNVVAFLNELPKTQHDVNSFVVDISAQTSTLLCFSVNGVFKEVDGKSRDSLRAFTRTFIAVPASNSGLCIVNDELFVRNASSEEIQRAFAMPAPTPSSSPVPTLSPEQQEMLQAFSTQSGMNLEWSQKCLQDNNWDYTRSAQAFTHLKAKGEIPEVAFMK | 1 | 1 | – | – | – | – | – | – | – | – | 2 | 2 | 1 | 1
